Source: patent US20190367426A1, “LIQUID UREASE INHIBITOR FORMULATIONS” (YARA INTERNATIONAL ASA, priority 2017, published 2019)

Test: Odour of nBTPT sources as such and applied onto urea granules
Conditions: qualitative

SMILES: CCCCNP(N)(N)=S [nBTPT powder, N-(n-butyl)thiophosphoric triamide]
- Smell from granules (applied onto urea granules in a concentration of 500 ppm): none
- Smell of the nBTPT formulation (nBTPT source as such): strong
